# “And” between values parts separate entries of the source, which are not always exact repeats. Identical values can stand only once. This is one part of the list. Many values rest on one well or one pass, so single values are uncertain.
# What was measured:
# Assay in all cases: cell viability relative to untreated (fraction); higher = less growth inhibition
# Settings in all cases: 5 µM; 3 days
# [1] = tested on: MEPP (mouse ovarian epithelium Trp53/Pten KO)
# [2] = tested on: PREPP (mouse prostate epithelium Trp53/Pten KO)
# [3] = tested on: MEPP (mouse ovarian epithelium Trp53/Pten KO); remark: listed apart in the source
# [4] = tested on: PREPP (mouse prostate epithelium Trp53/Pten KO); remark: listed apart in the source
SMILES,cell viability [1],cell viability [2],cell viability [3],cell viability [4]
COc1cc2c(cc1O)CC[C@@H]1[C@@H]2CC[C@]2(C)[C@@H](O)CC[C@@H]12,0.439,0.697,0.65,0.734
CCCC(CCC)C(=O)O,1.08 and 0.978 and 0.872,0.94 and 0.998 and 0.915,0.577 and 0.989,0.503 and 0.984
CCCCCCCCCC(=O)N[C@@H](Cc1c[nH]c2ccccc12)C(=O)N[C@@H](CC(N)=O)C(=O)N[C@@H](CC(=O)O)C(=O)N[C@@H]1C(=O)NCC(=O)N[C@@H](CCCN)C(=O)N[C@@H](CC(=O)O)C(=O)N[C@H](C)C(=O)N[C@@H](CC(=O)O)C(=O)NCC(=O)N[C@H](CO)C(=O)N[C@@H]([C@H](C)CC(=O)O)C(=O)N[C@@H](CC(=O)c2ccccc2N)C(=O)O[C@@H]1C,0.13,1.03,1.08,0.585
O=c1oc2c(O)c(O)cc3c(=O)oc4c(O)c(O)cc1c4c23,1.01,0.887,1.11,0.958
Nc1nc2[nH]cnc2c(=S)[nH]1,0.339,0.684,0.507,0.64
NC(=O)CCCCC1CCSS1 (configuration not stated),,,0.725,1.06
CN1CC[C@H](c2c(O)cc(O)c3c(=O)cc(-c4ccccc4Cl)oc23)[C@H](O)C1,,,0.621 and 0.613,0.716 and 0.677
O=C(O)[C@H]1O[C@@H](Oc2cc3oc(-c4ccccc4)cc(=O)c3c(O)c2O)[C@H](O)[C@@H](O)[C@@H]1O,,,0.762,0.911
C[C@H](CCC(=O)NCC(=O)O)[C@H]1CC[C@H]2[C@@H]3[C@H](O)C[C@@H]4C[C@H](O)CC[C@]4(C)[C@H]3C[C@H](O)[C@]12C,,,0.918,0.843
Clc1ccc(COC(Cn2ccnc2)c2ccc(Cl)cc2Cl)c(Cl)c1 (configuration not stated),,,1.14 and 0.974,0.976 and 0.953
CCCC1CC(C(=O)NC(C(C)Cl)C2OC(SC)C(O)C(O)C2O)N(C)C1 (configuration not stated),,,1.2,1.03
CC(=O)NC(CCCN)C(=O)O (configuration not stated),,,1.04,1.07
O=c1c(-c2ccc(O)cc2)coc2cc(O)ccc12,,,0.979,0.825
C=C1CC[C@H]2O[C@]2(C)CC[C@@H]2[C@@H]1CC2(C)C,,,0.853,0.859
CC1(C)C(O[C@@H]2OC[C@@H](O)[C@H](O)[C@H]2O)CC[C@]23CC24CC[C@]2(C)[C@@H]([C@@]5(C)CC[C@@H](C(C)(C)O)O5)[C@H](O)C[C@@]2(C)C4C[C@@H](O[C@@H]2O[C@H](CO)[C@@H](O)[C@H](O)[C@H]2O)C13 (some centres not stated),,,0.806,1.06
N=C(N)c1ccc(OCCCCCOc2ccc(C(=N)N)cc2)cc1,,,1.15,1.02
O=CC(O)C(O)C(O)CO (configuration not stated),,,1.06,0.912
C=C1CC[C@H](O)C/C1=C/C=C1\CCC[C@]2(C)[C@@H]([C@H](C)CCCC(C)C)CC[C@@H]12,,,1.07,0.948
C=C(C)[C@@H]1CC[C@]2(C(=O)O)CC[C@]3(C)[C@H](CC[C@@H]4[C@@]5(C)CC[C@H](O)C(C)(C)[C@@H]5CC[C@]43C)[C@@H]12,,,1.07,0.862
CCOC(=O)C1=C[C@]2(CC)CCCN3CCc4c(n1c1ccccc41)[C@@H]32,,,0.861,0.802
COc1cc2c(cc1OC)[C@@H](Cc1ccc(O)c(Oc3cc4c(cc3OC)CCN(C)[C@@H]4Cc3ccc(O)cc3)c1)N(C)CC2,,,1.07,0.977
O=C(/C=C/c1ccc(O)c(O)c1)O[C@@H]1C[C@@](O)(C(=O)O)C[C@@H](O)[C@@H]1O,,,1.25,1.25
CC(C)(CO)[C@@H](O)C(=O)NCCCO,,,1.15,0.689
Nc1ccn([C@H]2C[C@H](O)[C@@H](CO)O2)c(=O)n1,,,0.896,0.89
C[n+]1cccc(C(=O)[O-])c1,,,1.32 and 1.18,0.867 and 1.29
CC(=O)[C@H]1CC[C@H]2[C@@H]3CCC4=CC(=O)CC[C@]4(C)[C@H]3CC[C@]12C,,,1.21,1.07

SMILES,cell viability [1],cell viability [2],cell viability [3],cell viability [4]
Oc1ccc2ccccc2c1,,,1.58,0.954
O=C(O)c1cc(O)c2c(c1)[C@@H]([C@H]1c3cc(C(=O)O)cc(O)c3C(=O)c3c(O[C@@H]4O[C@H](CO)[C@@H](O)[C@H](O)[C@H]4O)cccc31)c1cccc(O[C@@H]3O[C@H](CO)[C@@H](O)[C@H](O)[C@H]3O)c1C2=O,,,1.09,1.04
CC(C)CC(N)=O,,,1.18,0.836
CC(C)(O)CC(=O)O,,,0.957,0.868
C[C@@H](O)[C@H]1C(=O)N2C(C(=O)OCOC(=O)C(C)(C)C)=C(SC3CN(C4=NCCS4)C3)[C@H](C)[C@H]12,,,0.991,0.986
O=C(CCc1ccc(O)cc1)c1c(O)cc(O)cc1O[C@@H]1OC(CO)[C@@H](O)[C@@H](O)C1O (some centres not stated),,,1,1.41
C/C1=C2N=C(/C=C3N=C(/C(C)=C4\[N-]C(C(CC(N)=O)C4(C)CCC(=O)NCC(C)OP(=O)([O-])OC4C(CO)OC(n5cnc6cc(C)c(C)cc65)C4O)C4(C)N=C1C(CCC(N)=O)C4(C)CC(N)=O)C(CCC(N)=O)C\3(C)C)C(CCC(N)=O)C/2(C)CC(N)=O.[CH3-].[Co+3] (configuration not stated),,,0.559,0.74
O=C(O)c1cc(=O)[nH]c(=O)[nH]1,,,1.15,1
CC(C)=CCC/C(C)=C/Cc1c(O)c(CC=C(C)C)c2c(c1O)C(=O)C1=C[C@@H]3C[C@H]4C(C)(C)O[C@@](C/C=C(/C)C(=O)O)(C3=O)[C@@]14O2,,,0.275,0.645
CC1(C)C[C@@H]1C(=O)N/C(=C\CCCCSC[C@H](N)C(=O)O)C(=O)O,,,0.804,0.9
O=C1C[C@@H](c2ccccc2)Oc2cc(O)cc(O)c21,,,1.02,0.869
O=C(O)[C@H]1C[C@@H](O)CN1,,,0.863,1.17
CC(C)=CCO,,,1.08,0.986
CS(=O)(=O)c1ccc([C@@H](O)[C@@H](CF)NC(=O)C(Cl)Cl)cc1,,,1.31,1.22
COc1cc(C=O)ccc1OC(C)=O,,,0.908,1.09
C[C@@H]1O[C@@H](OC[C@H]2O[C@@H](Oc3c(-c4ccc(O)cc4)oc4cc(O)cc(O)c4c3=O)[C@H](O)[C@@H](O)[C@@H]2O)[C@H](O)[C@H](O)[C@H]1O,,,1.13,0.874
c1cn[nH]c1,,,0.923,1.03
CCN1C(=O)C=CC1=O,,,1.03,1.1
CS(=O)(=O)CCNCc1ccc(-c2ccc3ncnc(Nc4ccc(OCc5cccc(F)c5)c(Cl)c4)c3c2)o1,,,1.07,0.729
COc1cc(CNC(=O)CCCCCCC(C)C)ccc1O,,,0.93,0.953
Nc1ccccc1C(=O)C[C@H](N)C(=O)O,,,1.03,1.08
NC(=O)C1=CN([C@@H]2O[C@H](COP(=O)(O)OP(=O)(O)OC[C@H]3O[C@@H](n4cnc5c(N)ncnc54)C(O)C3O)C(O)C2O)C=CC1 (some centres not stated),,,1.05,0.886
CO[C@H]1[C@H](O)[C@@H](O)[C@@H](O)[C@H](O)[C@@H]1O,,,0.979,0.923
CCCCc1oc2ccc(NS(C)(=O)=O)cc2c1C(=O)c1ccc(OCCCN(CCCC)CCCC)cc1,,,1.07,0.878
OC[C@H]1O[C@@H](O[C@@H]2OC=C[C@H]3[C@H](O)[C@@H]4O[C@]4(CO)[C@@H]23)[C@H](O)[C@@H](O)[C@@H]1O,,,1.21,0.994
FC(F)(F)Oc1ccc(-c2ccc3nnc(C(F)(F)F)n3c2)cc1,,,1.02,0.933

SMILES,cell viability [1],cell viability [2],cell viability [3],cell viability [4]
N[C@H](Cc1ccccc1)C(=O)O,,,0.954,0.933
CC1=CC(=O)CC(C)(C)C1=O,,,0.941,0.943
NCC(=O)NCC(=O)O,,,0.9,0.839
O=C(O)/C=C/CCCCCCCO,,,1.15,0.773
CC(=O)NC(Cc1ccccc1)C(=O)O (configuration not stated),,,1.13,0.973
C[N+](C)(C)CCO.O=C([O-])C(O)C(O)C(=O)O (configuration not stated),,,0.819,1.17
CCCCCCCC/C=C\CCCCCCCCCCCC(=O)O,,,0.827,1.01
COc1cc(/C=C/C(=O)O)ccc1O,,,0.999 and 0.944,1.13 and 1.16
COc1ccc2cc1Oc1ccc(cc1)C[C@H]1c3cc(c(OC)cc3CCN1C)Oc1c(OC)c(OC)cc3c1[C@H](C2)N(C)CC3,,,0.544,0.917
O=c1[nH]cnc2c1ncn2[C@H]1C[C@H](O)[C@@H](CO)O1,,,0.966,0.937
CC(=O)OC/C=C(\C)CCC=C(C)C,,,1.24,0.927
COc1cc2c(c(OC)c1OC)-c1c(cc3c(c1OC)OCO3)C[C@H](C)[C@@](C)(O)C2,,,1.32,0.96
C=CCc1ccc(O)c(-c2cc(CC=C)ccc2O)c1,,,1.97,0.846
C=C1c2cccc(O)c2C(=O)C2=C(O)[C@]3(O)C(=O)C(C(N)=O)=C(O)[C@@H](N(C)C)[C@@H]3[C@@H](O)[C@H]12,,,0.958,0.972
CC(=O)N[C@@H](CS)C(=O)O,,,1.03,0.852
CC[C@H]1OC(=O)[C@H](C)[C@@H](O[C@H]2C[C@@](C)(OC)[C@@H](O)[C@H](C)O2)[C@H](C)[C@@H](O[C@@H]2O[C@H](C)C[C@H](N(C)C)[C@H]2O)[C@](C)(O)C[C@@H](C)[C@@H]2N[C@@H](COCCOC)O[C@H]([C@H]2C)[C@]1(C)O,,,1.03,0.954
C[C@]12CC[C@@H]3c4ccc(O)cc4CC[C@H]3[C@@H]1CC[C@@H]2OC(=O)CCC1CCCC1,,,0.975,0.936
Cc1cccc2c3c(ccc12)C1=C(C(=O)C3=O)[C@@H](C)CO1,,,0.946,1.07
COc1cc2c(=O)c(-c3ccc(O)cc3)coc2cc1O[C@@H]1O[C@H](CO)[C@@H](O)[C@H](O)[C@H]1O,,,0.959,1.14
O=C(O)CNC(=O)Cc1ccccc1,,,0.947,0.977
C[C@@H]1CN(c2c(F)c(N)c3c(=O)c(C(=O)O)cn(C4CC4)c3c2F)C[C@H](C)N1,,,0.945,0.906
CC(C)=CC(=O)O,,,0.937,1
NC[C@H](O)c1ccc(O)c(O)c1,,,0.907,0.953
COc1cc(O)ccc1/C=C/C(=O)c1ccc(O)cc1,,,1.29,0.752

# From the supplement of paper PMC12873370
